The target in this test is T1, ATF4 bZIP TAP construct (mouse) (UniProt Q06507).
T1 sequence: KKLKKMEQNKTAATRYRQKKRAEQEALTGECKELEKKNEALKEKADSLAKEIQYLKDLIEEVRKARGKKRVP
Description: affinity purification with mass spectrometry; tandem affinity purification of the FLAG- and S-tagged ATF4 bZIP domain expressed in mouse TA muscle fibers in vivo (16 mice, 7 days after transfection); pooled muscle extracts, anti-FLAG magnetic beads, elution with 3X-FLAG peptide, then S-protein agarose; 50 mM HEPES pH 7.0, 150 mM NaCl, 5 mM MgCl2, 2 mM EGTA, 0.1-0.5% Triton X-100, 4 °C; LC-MS/MS; two independent experiments; empty TAP construct as control.

Results are given in words; binding and its absence hold for the method and conditions named. Binding seen in cells or lysates may run through a third protein. These calls come from enrichment with a bait or labelling near it, and not all partners need be listed.

This note sets out measurements from paper PMC7049960.

In the case of MAF/c-Maf (from UniProt P54843-1 1-370), the binding result is recorded as “binds”.
As for C/EBPα (from UniProt P53566-1 1-359), the entry is “binds”.
